# Laboratory results: patent publication US7659404B2, “Broad spectrum 2-(substituted-amino)-benzothiazole sulfonamide HIV protease inhibitors” (Tibotec Pharmaceuticals Ltd., priority 2001, dated 2010)
# Some results were stated once for a whole list of compounds, not compound by compound. For at least one compound, name, drawing or mass did not settle the structure.
# Tested on: HIV-1 strain LAI
# Assay: Cellular anti-HIV assay in MT4 cells (MTT), wild type laboratory strain
# Type: cell-based
# Conditions: five days, read-out: EC50 value against HIV-1 strain LAI
# Experimental: The compounds of the present invention were examined for anti-viral activity in a cellular assay. […] The cellular assay was performed according to the following procedure.
# Cellular Assay Experimental Method:
# HIV- or mock-infected MT4 cells were incubated for five days in the presence of various concentrations of the inhibitor. At the end of the incubation period, all HIV-infected cells have been killed by the replicating virus in the control cultures in the absence of any inhibitor. Cell viability is measured by measuring the concentration of MTT, a yellow, water soluble tetrazolium dye that is converted to a purple, water insoluble formazan in the mitochondria of living cells only. Upon solubilization of the resulting formazan crystals with isopropanol, the absorbance of the solution is monitored at 540 nm. The values correlate directly to the number of living cells remaining in the culture at the completion of the five day incubation. The inhibitory activity of the compound was monitored on the virus-infected cells and was expressed as EC50 and EC90. These values represent the amount of the compound required to protect 50% and 90%, respectively, of the cells from the cytopathogenic effect of the virus. The toxicity of the compound was measured on the mock-infected cells and was expressed as CC50, which represents the concentration of compound required to inhibit the growth of the cells by 50%. The selectivity index (SI) (ratio CC50/EC50) is an indication of the selectivity of the anti-HIV activity of the inhibitor.
row,SMILES,EC50 [µM]
1,CC(=O)N(C)c1nc2ccc(S(=O)(=O)N(CC(C)C)C[C@@H](O)[C@H](Cc3ccccc3)NC(=O)OCc3cncs3)cc2s1 [Compound 80],< 0.05
2,CC(C)CN(C[C@@H](O)[C@H](Cc1ccccc1)NC(=O)OCc1cccnc1)S(=O)(=O)c1ccc2nc(NCCN3CCCC3)sc2c1 [Compound 41],< 0.05
3,Cc1cc(C#N)cc(C)c1OCC(=O)N[C@@H](Cc1ccccc1)[C@H](O)CN(CC(C)C)S(=O)(=O)c1ccc2nc(NC(=O)CN3CCCC3)sc2c1 [Compound 75],< 0.05
4,Cc1c(N)cccc1C(=O)N[C@@H](Cc1ccccc1)[C@H](O)CN(CC(C)C)S(=O)(=O)c1ccc2nc(NC(=O)CN3CCN(C)CC3)sc2c1.O=C(O)C(F)(F)F [Compound 66],< 0.05
5,CC(C)CN(C[C@@H](O)[C@H](Cc1ccccc1)NC(=O)OCc1cncs1)S(=O)(=O)c1ccc2nc(NCCN3CCNCC3)sc2c1 [Compound 57],> 0.5
6,CC(C)CN(CC(O)C(Cc1ccccc1)NC(=O)OC1COC2OCCC12)S(=O)(=O)c1ccc2nc(NC(=O)CN3CCOCC3)sc2c1 (mixture of isomers) [Compound 10],< 0.05
7,CC(=O)N(C)c1nc2ccc(S(=O)(=O)N(CC(C)C)C[C@@H](O)[C@H](Cc3ccccc3)NC(=O)c3cccc(N)c3C)cc2s1 [Compound 82],< 0.05
8,CC(C)CN(C[C@@H](O)[C@H](Cc1ccccc1)NC(=O)O[C@H]1CO[C@H]2OCC[C@H]21)S(=O)(=O)c1ccc2nc(NC(=O)CN3CCNCC3)sc2c1 [Compound 17],< 0.05
9,Cc1c(N)cccc1C(=O)N[C@@H](Cc1ccccc1)[C@H](O)CN(CC(C)C)S(=O)(=O)c1ccc2nc(NCCN(C)C)sc2c1 [Compound 39],< 0.05
10,CC(=O)N(CCN1CCCC1)c1nc2ccc(S(=O)(=O)N(CC(C)C)C[C@@H](O)[C@H](Cc3ccccc3)NC(=O)OCc3cccnc3)cc2s1 [Compound 71],< 0.05
11,CC(=O)Nc1nc2ccc(S(=O)(=O)N(CC(C)C)CC(O)C(Cc3ccccc3)NC(=O)OC3COC4OCCC34)cc2s1 (mixture of isomers) [Compound 1],< 0.05
12,CC(C)CN(C[C@@H](O)[C@H](Cc1ccccc1)NC(=O)O[C@H]1CCOC1)S(=O)(=O)c1ccc2nc(NC(=O)CN3CCN(C)CC3)sc2c1 [Compound 63],< 0.05
13,Cc1cccc(C)c1OCC(=O)Nc1nc2ccc(S(=O)(=O)N(Cc3ccccn3)C[C@@H](O)[C@H](Cc3ccccc3)NC(=O)COc3c(C)cccc3C)cc2s1 [Compound 30],> 0.5
14,CC(=O)N(C)c1nc2ccc(S(=O)(=O)N(CC(C)C)CC(O)C(Cc3ccccc3)NC(=O)OC3COC4OCCC34)cc2s1 (mixture of isomers) [Compound 9],< 0.05
15,CC(C)CN(C[C@@H](O)[C@H](Cc1ccccc1)NC(=O)O[C@H]1CCOC1)S(=O)(=O)c1ccc2nc(NC(=O)CN3CCNCC3)sc2c1 [Compound 35],< 0.05
16,CC(=O)N(C)c1nc2ccc(S(=O)(=O)N(CC(C)C)C[C@@H](O)[C@H](Cc3ccccc3)NC(=O)c3cccc(O)c3C)cc2s1 [Compound 83],< 0.05
17,Cc1cc(Br)ccc1C(=O)N[C@@H](Cc1ccccc1)[C@H](O)CN(CC(C)C)S(=O)(=O)c1ccc2nc(NC(=O)CN3CCCC3)sc2c1 [Compound 70],< 0.05

row,SMILES,EC50 [µM]
1,CC(C)CN(C[C@@H](O)[C@H](Cc1ccccc1)NC(=O)O[C@H]1CO[C@H]2OCC[C@H]21)S(=O)(=O)c1ccc2nc(NC(=O)CN3CCCC3)sc2c1.O=C(O)/C=C/C(=O)O [Compound 13],< 0.05
2,CC(C)CN(C[C@@H](O)[C@H](Cc1ccccc1)NC(=O)O[C@H]1CO[C@H]2OCC[C@H]21)S(=O)(=O)c1ccc2nc(N3CCN(C)C(=O)C3)sc2c1 [Compound 24],< 0.05
3,CC(C)CN(C[C@@H](O)[C@H](Cc1ccccc1)NC(=O)OCc1cccnc1)S(=O)(=O)c1ccc2nc(NC(=O)CN3CCCC3)sc2c1 [Compound 61],< 0.05
4,CC(C)CN(C[C@@H](O)[C@H](Cc1ccccc1)NC(=O)O[C@H]1CCOC1)S(=O)(=O)c1ccc2nc(NCCN3CCCC3)sc2c1.O=C(O)C(F)(F)F [Compound 68],< 0.05
5,Cc1c(N)cccc1C(=O)N[C@@H](Cc1ccccc1)[C@H](O)CN(CC(C)C)S(=O)(=O)c1ccc2nc(NCCN3CCCC3)sc2c1 [Compound 45],< 0.05
6,CC(C)CN(CC(O)C(Cc1ccccc1)NC(=O)OC1COC2OCCC12)S(=O)(=O)c1ccc2nc(NC(=O)CN(C)C)sc2c1 (mixture of isomers) [Compound 3],< 0.05
7,CCOC(=O)N(CCN(C)C)c1nc2ccc(S(=O)(=O)N(CC(C)C)C[C@@H](O)[C@H](Cc3ccccc3)NC(=O)O[C@H]3CO[C@H]4OCC[C@H]43)cc2s1 [Compound 28],< 0.05
8,CC(C)CN(CC(O)C(Cc1ccccc1)NC(=O)OC1COC2OCCC12)S(=O)(=O)c1ccc2nc(NC(=O)CN3CCCC3)sc2c1 (mixture of isomers) [Compound 7],< 0.05
9,Cc1c(N)cccc1C(=O)N[C@@H](Cc1ccccc1)[C@H](O)CN(CC(C)C)S(=O)(=O)c1ccc2nc(NC(=O)CN3CCCC3)sc2c1 [Compound 62],< 0.05
10,CC(=O)N(C)c1nc2ccc(S(=O)(=O)N(CC(C)C)C[C@@H](O)[C@H](Cc3ccccc3)NC(=O)OCc3cccnc3)cc2s1 [Compound 81],< 0.05
11,Cc1c(N)cccc1C(=O)N[C@@H](Cc1ccccc1)[C@H](O)CN(CC(C)C)S(=O)(=O)c1ccc2nc(NCCN3CCNCC3)sc2c1 [Compound 60],> 0.5
12,Cc1cccc(C)c1OCC(=O)N[C@@H](Cc1ccccc1)[C@H](O)CN(CC(C)C)S(=O)(=O)c1ccc2nc(NCCN(C)C)sc2c1 [Compound 40],< 0.05
13,CC(C)CN(C[C@@H](O)[C@H](Cc1ccccc1)NC(=O)OCc1cccnc1)S(=O)(=O)c1ccc2nc(NCCN(C)C)sc2c1 [Compound 38],< 0.05
14,CC(C)CN(C[C@@H](O)[C@H](Cc1ccccc1)NC(=O)O[C@H]1CO[C@H]2OCC[C@H]21)S(=O)(=O)c1ccc2nc(N3CCN(C)CC3=O)sc2c1 [Compound 26],< 0.05
15,CC(C)CN(C[C@@H](O)[C@H](Cc1ccccc1)NC(=O)O[C@H]1CCOC1)S(=O)(=O)c1ccc2nc(NC(=O)CN(C)C)sc2c1 [Compound 34],< 0.05
16,CC(=O)N(C)c1nc2ccc(S(=O)(=O)N(CC(C)C)C[C@@H](O)[C@H](Cc3ccccc3)NC(=O)O[C@H]3CCOC3)cc2s1 [Compound 79],< 0.05
17,Cc1cccc(C)c1OCC(=O)N[C@@H](Cc1ccccc1)[C@H](O)CN(CC(C)C)S(=O)(=O)c1ccc2nc(NC(=O)CN3CCCC3)sc2c1 [Compound 37],< 0.05
